# Results taken from PubChem BioAssay AID2442 (Broad Institute, 2010).
# Some of the results follow. Potency and affinity values are given separately. The source made no clear call on entries shown without one.
# Assay: PubChem AID 2442
# Conditions: H4 cells, SNCA 5'UTR luciferase translation, luminescence; at 6 µM (top of the series)
smiles,measurement,value
CC(=O)O[C@@]12CO[C@@H]1C[C@H](O)[C@@]1(C)C(=O)[C@H](O)C3=C(C)[C@@H](OC(=O)[C@H](O)[C@@H](NC(=O)c4ccccc4)c4ccccc4)C[C@](O)([C@@H](OC(=O)c4ccccc4)[C@H]21)C3(C)C,activation,-14%
